Paper PMC7199003

Protein sequences, listed by entry. Tags and fused reporters are not part of them.
UniProt P02730: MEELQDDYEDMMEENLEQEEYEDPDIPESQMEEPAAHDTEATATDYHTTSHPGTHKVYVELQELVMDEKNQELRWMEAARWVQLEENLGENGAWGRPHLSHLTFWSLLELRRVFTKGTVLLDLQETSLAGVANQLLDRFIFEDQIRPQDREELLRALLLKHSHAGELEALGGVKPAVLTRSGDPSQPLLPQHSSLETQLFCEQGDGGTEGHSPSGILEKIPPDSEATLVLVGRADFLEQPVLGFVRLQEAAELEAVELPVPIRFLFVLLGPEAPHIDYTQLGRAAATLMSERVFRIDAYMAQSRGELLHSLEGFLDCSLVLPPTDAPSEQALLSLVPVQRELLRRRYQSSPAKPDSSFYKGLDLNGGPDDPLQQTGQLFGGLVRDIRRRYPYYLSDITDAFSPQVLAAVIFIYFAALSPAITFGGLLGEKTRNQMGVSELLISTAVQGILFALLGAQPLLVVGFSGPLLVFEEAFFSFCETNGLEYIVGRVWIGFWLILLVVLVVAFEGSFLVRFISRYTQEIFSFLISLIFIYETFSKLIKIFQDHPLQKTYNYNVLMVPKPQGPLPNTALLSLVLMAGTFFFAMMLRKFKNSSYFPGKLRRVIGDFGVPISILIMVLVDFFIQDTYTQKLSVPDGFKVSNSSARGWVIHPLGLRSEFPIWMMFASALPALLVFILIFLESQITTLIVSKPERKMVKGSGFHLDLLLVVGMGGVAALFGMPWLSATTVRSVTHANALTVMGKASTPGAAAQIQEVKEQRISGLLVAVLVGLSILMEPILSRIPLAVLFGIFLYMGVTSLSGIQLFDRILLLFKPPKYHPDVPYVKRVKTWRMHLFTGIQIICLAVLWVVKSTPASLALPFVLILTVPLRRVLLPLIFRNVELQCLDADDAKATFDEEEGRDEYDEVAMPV
UniProt P35579: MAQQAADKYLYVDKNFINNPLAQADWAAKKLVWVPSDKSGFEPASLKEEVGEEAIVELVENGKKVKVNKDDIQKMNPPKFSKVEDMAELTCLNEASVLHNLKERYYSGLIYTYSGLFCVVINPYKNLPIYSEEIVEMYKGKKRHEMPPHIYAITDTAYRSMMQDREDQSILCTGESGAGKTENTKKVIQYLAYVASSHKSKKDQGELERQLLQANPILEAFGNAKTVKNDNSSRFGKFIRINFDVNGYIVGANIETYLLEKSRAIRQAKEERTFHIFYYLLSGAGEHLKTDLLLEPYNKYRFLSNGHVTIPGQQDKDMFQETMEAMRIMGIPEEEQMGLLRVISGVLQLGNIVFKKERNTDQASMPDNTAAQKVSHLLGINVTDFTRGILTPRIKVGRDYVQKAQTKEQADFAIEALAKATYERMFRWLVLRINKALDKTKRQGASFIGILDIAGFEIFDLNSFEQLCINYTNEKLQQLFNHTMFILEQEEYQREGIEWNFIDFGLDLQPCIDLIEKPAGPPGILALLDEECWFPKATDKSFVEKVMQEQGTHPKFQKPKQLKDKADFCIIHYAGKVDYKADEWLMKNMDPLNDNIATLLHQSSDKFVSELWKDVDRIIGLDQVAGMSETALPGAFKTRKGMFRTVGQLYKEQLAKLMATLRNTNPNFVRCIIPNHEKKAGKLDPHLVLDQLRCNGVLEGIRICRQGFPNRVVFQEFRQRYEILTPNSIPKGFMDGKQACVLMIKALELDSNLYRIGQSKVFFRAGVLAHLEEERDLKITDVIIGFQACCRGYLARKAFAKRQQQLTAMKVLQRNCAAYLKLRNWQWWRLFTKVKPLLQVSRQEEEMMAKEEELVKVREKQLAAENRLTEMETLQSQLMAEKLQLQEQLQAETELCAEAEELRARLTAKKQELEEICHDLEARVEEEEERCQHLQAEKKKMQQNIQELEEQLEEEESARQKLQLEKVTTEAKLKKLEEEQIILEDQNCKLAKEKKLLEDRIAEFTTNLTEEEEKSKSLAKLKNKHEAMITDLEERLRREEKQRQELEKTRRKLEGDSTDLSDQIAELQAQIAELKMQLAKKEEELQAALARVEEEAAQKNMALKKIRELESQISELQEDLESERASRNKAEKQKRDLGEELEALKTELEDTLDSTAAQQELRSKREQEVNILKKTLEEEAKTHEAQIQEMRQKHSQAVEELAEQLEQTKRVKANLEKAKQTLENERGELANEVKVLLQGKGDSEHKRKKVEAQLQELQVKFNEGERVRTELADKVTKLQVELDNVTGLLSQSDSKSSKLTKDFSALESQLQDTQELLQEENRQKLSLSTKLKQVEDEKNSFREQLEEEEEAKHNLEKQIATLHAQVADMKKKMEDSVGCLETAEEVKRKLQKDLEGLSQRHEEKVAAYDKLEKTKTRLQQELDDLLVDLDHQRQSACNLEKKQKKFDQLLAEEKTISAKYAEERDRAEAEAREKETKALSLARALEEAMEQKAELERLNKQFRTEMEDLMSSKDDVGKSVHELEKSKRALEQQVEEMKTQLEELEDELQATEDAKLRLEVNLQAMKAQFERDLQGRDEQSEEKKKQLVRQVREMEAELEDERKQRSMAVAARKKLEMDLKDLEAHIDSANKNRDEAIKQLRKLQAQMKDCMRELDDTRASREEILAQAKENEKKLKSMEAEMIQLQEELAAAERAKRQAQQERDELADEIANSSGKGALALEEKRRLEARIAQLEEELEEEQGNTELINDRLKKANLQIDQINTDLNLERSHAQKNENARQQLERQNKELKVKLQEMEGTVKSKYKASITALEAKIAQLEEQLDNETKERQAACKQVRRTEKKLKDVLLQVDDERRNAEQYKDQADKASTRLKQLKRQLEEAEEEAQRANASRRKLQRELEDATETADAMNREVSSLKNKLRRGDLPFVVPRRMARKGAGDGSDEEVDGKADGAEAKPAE
UniProt P35580: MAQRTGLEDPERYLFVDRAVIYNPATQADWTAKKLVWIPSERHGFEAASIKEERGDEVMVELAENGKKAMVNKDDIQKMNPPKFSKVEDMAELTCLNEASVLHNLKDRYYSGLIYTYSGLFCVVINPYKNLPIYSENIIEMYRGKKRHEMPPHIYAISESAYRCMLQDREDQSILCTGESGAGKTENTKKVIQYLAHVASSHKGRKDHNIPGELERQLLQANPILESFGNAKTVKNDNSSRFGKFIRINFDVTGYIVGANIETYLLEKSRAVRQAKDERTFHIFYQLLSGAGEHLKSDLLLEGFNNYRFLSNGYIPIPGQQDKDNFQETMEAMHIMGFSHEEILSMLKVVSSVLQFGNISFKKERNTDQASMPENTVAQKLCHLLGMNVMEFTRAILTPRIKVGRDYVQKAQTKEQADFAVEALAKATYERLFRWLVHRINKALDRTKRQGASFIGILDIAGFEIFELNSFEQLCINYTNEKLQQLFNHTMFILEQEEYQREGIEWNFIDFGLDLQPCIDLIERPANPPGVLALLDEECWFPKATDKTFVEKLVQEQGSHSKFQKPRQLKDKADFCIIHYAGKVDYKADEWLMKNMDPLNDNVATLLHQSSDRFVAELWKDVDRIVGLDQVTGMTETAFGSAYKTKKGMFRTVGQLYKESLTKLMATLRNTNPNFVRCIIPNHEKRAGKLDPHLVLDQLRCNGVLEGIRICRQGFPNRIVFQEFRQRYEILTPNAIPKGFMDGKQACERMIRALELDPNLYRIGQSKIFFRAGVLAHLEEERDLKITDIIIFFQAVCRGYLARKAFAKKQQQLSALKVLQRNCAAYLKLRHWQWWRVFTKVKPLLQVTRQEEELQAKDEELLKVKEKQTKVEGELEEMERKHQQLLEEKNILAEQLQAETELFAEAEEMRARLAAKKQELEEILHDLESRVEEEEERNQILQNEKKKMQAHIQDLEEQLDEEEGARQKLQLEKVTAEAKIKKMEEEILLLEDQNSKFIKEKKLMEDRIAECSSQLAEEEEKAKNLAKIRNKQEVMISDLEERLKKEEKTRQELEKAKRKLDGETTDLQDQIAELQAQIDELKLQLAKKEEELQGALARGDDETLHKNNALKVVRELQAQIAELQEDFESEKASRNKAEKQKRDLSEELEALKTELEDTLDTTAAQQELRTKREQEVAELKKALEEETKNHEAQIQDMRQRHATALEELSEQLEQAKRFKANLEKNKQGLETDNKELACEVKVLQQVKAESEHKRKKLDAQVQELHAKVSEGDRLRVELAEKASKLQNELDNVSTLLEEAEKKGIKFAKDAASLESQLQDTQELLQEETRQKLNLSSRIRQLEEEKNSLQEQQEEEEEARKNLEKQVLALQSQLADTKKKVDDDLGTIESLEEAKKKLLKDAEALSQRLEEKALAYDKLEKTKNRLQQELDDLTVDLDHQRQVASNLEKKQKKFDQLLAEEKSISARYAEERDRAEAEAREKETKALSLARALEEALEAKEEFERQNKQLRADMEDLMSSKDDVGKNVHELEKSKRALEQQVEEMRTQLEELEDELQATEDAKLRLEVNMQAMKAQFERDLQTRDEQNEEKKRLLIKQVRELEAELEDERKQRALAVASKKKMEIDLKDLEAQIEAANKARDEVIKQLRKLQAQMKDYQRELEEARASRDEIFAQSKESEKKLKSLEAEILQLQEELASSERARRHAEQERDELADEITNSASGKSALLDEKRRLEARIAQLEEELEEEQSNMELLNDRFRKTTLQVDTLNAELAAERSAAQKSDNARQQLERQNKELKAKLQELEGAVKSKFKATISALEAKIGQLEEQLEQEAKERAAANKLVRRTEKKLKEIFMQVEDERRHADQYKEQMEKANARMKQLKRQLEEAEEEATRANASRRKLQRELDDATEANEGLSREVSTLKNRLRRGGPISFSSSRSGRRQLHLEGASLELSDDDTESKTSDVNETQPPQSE

Molecular target: erythrocyte anion exchanger 1 (AE1, band 3), wild type (human (endogenous in cultured erythroblasts)) (UniProt P02730)
Assay: affinity purification with mass spectrometry; band 3 immunoprecipitated with rat monoclonal anti-band 3 BRAC66 on protein G sepharose from lysates (1% Nonidet-P40, 150 mM KCl, 10 mM Tris-HCl, pH 7.4) of cultured erythroblasts: homozygous SAO day 27, control day 14; SDS-PAGE, LC-MS/MS, spectral counts compared

| Substance | binding |
| --- | --- |
| non-muscle myosin IIA (from UniProt P35579 1-1960) | no binding |
| non-muscle myosin IIB (from UniProt P35580 1-1976) | no binding |

No constants are given. Whether binding was seen depends on the method and setting. Binding seen in cells or lysates may run through a third protein. Here binding means that the protein was enriched with, or labelled near, the bait; the list need not be complete. No binding means not detected with the bait.
